Source: publication PMC5797244
No constants are given. Whether binding was seen depends on the method and setting. In cells and extracts the contact can be indirect. Some results given as binding are weak or reduced against the parent protein; the word gives no strength.

By UniProt entry, the sequences of proteins in these tests, tags left out.
UniProt Q4ACU6: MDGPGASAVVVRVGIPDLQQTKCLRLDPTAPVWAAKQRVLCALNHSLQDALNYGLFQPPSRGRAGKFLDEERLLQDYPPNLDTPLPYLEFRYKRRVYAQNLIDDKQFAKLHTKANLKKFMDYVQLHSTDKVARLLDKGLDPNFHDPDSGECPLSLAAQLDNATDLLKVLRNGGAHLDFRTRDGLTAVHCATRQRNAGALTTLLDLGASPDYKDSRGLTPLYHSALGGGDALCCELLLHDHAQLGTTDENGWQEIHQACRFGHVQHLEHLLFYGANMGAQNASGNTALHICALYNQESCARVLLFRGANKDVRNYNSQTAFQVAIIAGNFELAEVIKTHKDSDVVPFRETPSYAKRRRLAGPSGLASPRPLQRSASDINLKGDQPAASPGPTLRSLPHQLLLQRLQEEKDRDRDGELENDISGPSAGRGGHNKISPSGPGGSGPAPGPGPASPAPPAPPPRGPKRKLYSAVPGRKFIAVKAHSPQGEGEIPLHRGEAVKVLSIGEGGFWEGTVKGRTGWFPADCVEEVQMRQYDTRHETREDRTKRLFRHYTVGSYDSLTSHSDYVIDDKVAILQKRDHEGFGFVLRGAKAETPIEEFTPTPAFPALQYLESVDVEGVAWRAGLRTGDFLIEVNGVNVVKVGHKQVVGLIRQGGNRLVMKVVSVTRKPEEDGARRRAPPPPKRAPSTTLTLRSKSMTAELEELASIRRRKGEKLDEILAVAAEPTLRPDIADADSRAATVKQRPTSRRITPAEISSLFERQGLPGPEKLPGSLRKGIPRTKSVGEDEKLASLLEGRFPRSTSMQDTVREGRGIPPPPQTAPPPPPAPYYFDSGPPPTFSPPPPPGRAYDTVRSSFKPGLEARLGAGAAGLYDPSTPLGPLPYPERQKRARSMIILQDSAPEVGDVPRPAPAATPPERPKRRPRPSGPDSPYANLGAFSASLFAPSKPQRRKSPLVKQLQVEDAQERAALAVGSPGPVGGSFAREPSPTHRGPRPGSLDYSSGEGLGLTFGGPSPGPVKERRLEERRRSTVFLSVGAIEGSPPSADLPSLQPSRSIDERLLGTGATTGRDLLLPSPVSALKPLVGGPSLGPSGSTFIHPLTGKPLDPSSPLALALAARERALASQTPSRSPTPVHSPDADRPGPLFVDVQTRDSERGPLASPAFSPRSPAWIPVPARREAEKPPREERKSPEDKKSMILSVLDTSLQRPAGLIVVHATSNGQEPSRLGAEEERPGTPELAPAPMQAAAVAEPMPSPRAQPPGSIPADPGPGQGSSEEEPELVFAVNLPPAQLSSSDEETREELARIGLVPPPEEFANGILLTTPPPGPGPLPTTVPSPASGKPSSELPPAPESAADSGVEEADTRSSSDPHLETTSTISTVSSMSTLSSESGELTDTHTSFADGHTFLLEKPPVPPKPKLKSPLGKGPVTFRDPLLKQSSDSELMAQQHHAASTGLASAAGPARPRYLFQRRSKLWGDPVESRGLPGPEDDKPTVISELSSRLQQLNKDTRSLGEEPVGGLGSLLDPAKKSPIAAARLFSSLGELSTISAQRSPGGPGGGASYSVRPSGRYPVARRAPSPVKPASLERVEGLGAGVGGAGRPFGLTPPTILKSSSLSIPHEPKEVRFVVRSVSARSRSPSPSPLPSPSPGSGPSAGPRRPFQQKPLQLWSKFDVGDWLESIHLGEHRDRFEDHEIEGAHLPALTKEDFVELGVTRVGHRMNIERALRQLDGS

Target: SHANK3 (mouse (endogenous in adult mouse cortex)) (UniProt Q4ACU6)
Assay: co-IP; SHANK3 immunoprecipitated from WT and Dlgap1 KO adult mouse cortex; Western blots for Dlg4 and Homer1; triplicate assays

B1: Homer1 (protein, UniProt Q9Z2Y3 1-366)
chain: MGEQPIFSTRAHVFQIDPNTKKNWVPTSKHAVTVSYFYDSTRNVYRIISLDGSKAIINSTITPNMTFTKTSQKFGQWADSRANTVYGLGFSSEHHLSKFAEKFQEFKEAARLAKEKSQEKMELTSTPSQESAGGDLQSPLTPESINGTDDERTPDVTQNSEPRAEPTQNALPFPHSAGDRTQALSHASSAISKHWEAELATLKGNNAKLTAALLESTANVKQWKQQLAAYQEEAERLHKRVTELECVSSQANAVHSHKTELNQTVQELEETLKVKEEEIERLKQEIDNARELQEQRDSLTQKLQEVEIRNKDLEGQLSDLEQRLEKSQNEQEAFRSNLKTLLEILDGKIFELTELRDNLAKLLECS
binding: binds
